Measurements from “University of Dundee, Small-Polar-MMV Screening Library” (2021), ChEMBL document CHEMBL3988442.

Results are given as percent effect.
The controls that fix the scale are not given in the record; negative values are as filed.
This is an unselected part of the compounds tested.
A dash means the value is not listed here; it may have been measured.

Mtb growth Cornell: 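Whole-cell assay for inhibitors of Mycobacterium tuberculosis growth, labelled Cornell in the record; the read-out is not stated. The concentration is filed as 10 mM, unlikely as a test dose, so the dose is not known. Higher means stronger inhibition (inferred from two other growth screens of the library). Of about 53,000 compounds tested this way, about 900 (1.7%) reached 50% or more in at least one test.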
Mtb heat-shock: 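Assay on Mycobacterium tuberculosis, filed only as a heat shock assay from Cornell; the read-out is not stated. The concentration is filed as 10 mM, unlikely as a test dose, so the dose is not known. The record gives no direction; compounds that gave an IC50 in retests scored well above the rest, so higher reads as stronger inhibition. Size under these conditions: about 69,000 compounds, about 930 of them at 50% or above in at least one test.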

structure,Mtb growth Cornell,Mtb heat-shock
CO[C@H]1CN(S(=O)(=O)c2ccccc2F)C[C@@]12CCCO2,-9.652,-9.395
O=C(CCC(=O)N1CCOCC1c1ccccc1)c1cccs1 (stereo not shown),-,-6.659
Cc1noc(C2CCCN(C(=O)CCNc3ncccn3)C2)n1 (stereo not shown),-,-9.783
COCCN1CCC(NC(=O)C/C=C/c2ccc(C(C)C)cc2)CC1,-,-134.2
[H][C@]1([C@@]2(C)CC[C@H](O)C(C)(C)O2)CC2(CCN(c3cnccn3)CC2)CO1,33.09,4.921
CCOCC(=O)NCC1CCN(Cc2ccsc2)CC1,10.33,12.63
CC(Cn1cc(Br)cn1)C(=O)Nc1ccncc1 (stereo not shown),18.21,-28.24
O=S(=O)(c1ccc(C(F)(F)F)cc1)N1CCC(OCc2ccccn2)C1 (stereo not shown),27.08,2.149
CC(C)(C)OC(=O)N[C@H]1CCN(c2cncc(Br)c2)C1,-,-21.48
COc1cccc2c1OCC(CNc1cc(N)nc(SC)n1)C2 (stereo not shown),106,13.33
Cc1nc(NC(=O)c2c(-n3cnnn3)sc3c2CCC3)sc1C,3.951,2.227
[H][C@]12CNC[C@@]1([H])[C@H](C(=O)NCc1ccccn1)COC2,-45.28,-6.429
COc1cccc(N2C(=O)CC3(CCCNC3)C2=O)c1.Cl (stereo not shown),17.88,-7.77
C[C@H]1CN(C(=O)c2cscn2)C[C@@]12CCN(c1ccsc1)C2=O,12.11,2.939
CC(C)N(Cc1cccc(F)c1)Cc1nc2c(cnn2C)c(=O)[nH]1,22.88,33.2
O=C(NC1(c2nc(C3CC3)no2)CCCCC1)c1ccncc1,3.76,-35.41
Cc1nnc(NC(=O)NCc2cccnc2N(C)C)s1,9.702,-14.07
CC(=O)N1CCN(C(=O)NCc2csc(Br)c2)CC1,8.089,11.96
O=S(=O)(c1c(N2CCCCC2)ccc2nonc12)N1CCCCC1,0.9129,15.8
[H][C@]12CC[C@]([H])(CN(c3nccc(C)n3)C1)N(CC1CCC1)C2=O,-9.777,17.42
CN(C)C1CCCN(C(=O)NCCNC(=O)C2CCCCC2)C1 (stereo not shown),19.99,3.376
Cc1cc(C)n(CC2CN(Cc3nnsc3Cl)CCO2)n1 (stereo not shown),-,-5.403
COCCC(=O)N(C)CCC1=CCN(C)CC1,-19.87,6.582
CCc1noc(CC)c1CNC(=O)Nc1cccc(C(=O)N(C)C)c1,-,-1.91
CCOc1ncccc1NC(=O)c1ccc(C)s1,14.84,-20.92
O=c1[nH]c(C2CCOC2)nc2cc(F)c(F)cc12 (stereo not shown),-48.95,-7.112
COCc1ncc(CN(Cc2ccco2)C(C)C(C)C)cn1 (stereo not shown),-6.353,-16.35
Cc1ccc2c(c1)C(NC1CCN(C)CC1)CCCO2 (stereo not shown),-20.09,-10.7
Cc1ccccc1C(C)NC(=O)Cc1c(C)nc2cc(=O)[nH]n2c1C (stereo not shown),-,33.63
COc1ccc(CNc2cccnc2-n2cccn2)c(OC)c1OC,-,-7.596
O=C(O)c1cc2n(n1)CCCN(C(=O)CCc1c[nH]c3ccccc13)C2,19.91,-1.852
CN(C)c1ccc(C(=O)NCCCc2ccccn2)cn1,-1.76,-5.667
Cc1nc(N2CCCN(c3ncccn3)CC2)c2cnn(C)c2n1,-6.746,17.3
CC(Cn1cncc1-c1cnn(Cc2ccccc2)c1)N1CCCCC1.Cl (stereo not shown),58.13,-9.415
COCc1cc(NCc2cc(F)ccc2F)n2nccc2n1,6.939,19.09
CN1CCN(c2ncnc3c2CCN(c2ncc(F)cn2)CC3)CC1.O=C(O)C(F)(F)F,15.42,-20.07
NC(=O)N1Cc2nccn2CC(Cn2ncccc2=O)C1 (stereo not shown),36.79,-2.694
O=C(c1ccccc1F)N1CCN(c2ccc(-n3cccc3)nn2)CC1,-23.16,3.012
CCOCc1ccccc1NC(=O)NC1CCN(c2ccccc2)C1 (stereo not shown),13.74,14.98
CCOC(=O)N1CCN(c2nc(NCCCO)c3ccccc3n2)CC1.Cl,-,13.94
Cc1ccoc1C(=O)N1CCCC(c2cc(C(F)(F)F)[nH]n2)C1 (stereo not shown),-,-17.22